Test results reported in paper PMC6212486.
These are yes or no findings as the source states them, for the method shown. Binding seen in cells or lysates may run through a third protein. A yes stands for co-enrichment or nearness to the bait. Other partners may have been found.

By UniProt entry, the sequences of proteins in these tests, tags left out.
UniProt Q7M6Y2: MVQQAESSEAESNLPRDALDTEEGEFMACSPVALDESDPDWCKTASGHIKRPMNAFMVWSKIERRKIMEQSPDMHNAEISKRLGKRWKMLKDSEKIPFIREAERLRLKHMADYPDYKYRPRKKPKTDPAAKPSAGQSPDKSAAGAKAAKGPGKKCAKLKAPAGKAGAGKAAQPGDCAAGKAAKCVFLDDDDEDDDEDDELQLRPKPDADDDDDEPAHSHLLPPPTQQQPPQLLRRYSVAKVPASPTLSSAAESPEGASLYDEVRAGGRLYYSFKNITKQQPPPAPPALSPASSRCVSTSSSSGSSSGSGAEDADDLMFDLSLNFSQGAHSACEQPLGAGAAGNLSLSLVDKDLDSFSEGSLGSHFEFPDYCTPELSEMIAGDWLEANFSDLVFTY
UniProt Q9DBR0: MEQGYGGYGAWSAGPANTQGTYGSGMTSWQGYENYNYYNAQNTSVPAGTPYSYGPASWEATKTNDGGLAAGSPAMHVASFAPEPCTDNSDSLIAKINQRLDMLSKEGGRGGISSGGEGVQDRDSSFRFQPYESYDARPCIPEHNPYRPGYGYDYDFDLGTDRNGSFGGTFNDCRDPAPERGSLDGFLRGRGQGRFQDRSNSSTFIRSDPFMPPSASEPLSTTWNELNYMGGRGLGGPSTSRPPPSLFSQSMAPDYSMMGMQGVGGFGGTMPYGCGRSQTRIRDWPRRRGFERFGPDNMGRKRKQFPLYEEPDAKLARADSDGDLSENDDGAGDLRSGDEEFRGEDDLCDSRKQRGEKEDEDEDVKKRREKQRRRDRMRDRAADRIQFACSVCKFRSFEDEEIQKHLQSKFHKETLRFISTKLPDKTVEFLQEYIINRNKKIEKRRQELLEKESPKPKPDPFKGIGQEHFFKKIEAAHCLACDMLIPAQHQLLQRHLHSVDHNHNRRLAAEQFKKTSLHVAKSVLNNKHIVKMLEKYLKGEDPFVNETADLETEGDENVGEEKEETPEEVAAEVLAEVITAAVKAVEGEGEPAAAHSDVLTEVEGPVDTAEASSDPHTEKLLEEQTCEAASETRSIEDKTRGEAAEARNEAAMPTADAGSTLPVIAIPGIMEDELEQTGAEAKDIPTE
UniProt Q9WTQ5: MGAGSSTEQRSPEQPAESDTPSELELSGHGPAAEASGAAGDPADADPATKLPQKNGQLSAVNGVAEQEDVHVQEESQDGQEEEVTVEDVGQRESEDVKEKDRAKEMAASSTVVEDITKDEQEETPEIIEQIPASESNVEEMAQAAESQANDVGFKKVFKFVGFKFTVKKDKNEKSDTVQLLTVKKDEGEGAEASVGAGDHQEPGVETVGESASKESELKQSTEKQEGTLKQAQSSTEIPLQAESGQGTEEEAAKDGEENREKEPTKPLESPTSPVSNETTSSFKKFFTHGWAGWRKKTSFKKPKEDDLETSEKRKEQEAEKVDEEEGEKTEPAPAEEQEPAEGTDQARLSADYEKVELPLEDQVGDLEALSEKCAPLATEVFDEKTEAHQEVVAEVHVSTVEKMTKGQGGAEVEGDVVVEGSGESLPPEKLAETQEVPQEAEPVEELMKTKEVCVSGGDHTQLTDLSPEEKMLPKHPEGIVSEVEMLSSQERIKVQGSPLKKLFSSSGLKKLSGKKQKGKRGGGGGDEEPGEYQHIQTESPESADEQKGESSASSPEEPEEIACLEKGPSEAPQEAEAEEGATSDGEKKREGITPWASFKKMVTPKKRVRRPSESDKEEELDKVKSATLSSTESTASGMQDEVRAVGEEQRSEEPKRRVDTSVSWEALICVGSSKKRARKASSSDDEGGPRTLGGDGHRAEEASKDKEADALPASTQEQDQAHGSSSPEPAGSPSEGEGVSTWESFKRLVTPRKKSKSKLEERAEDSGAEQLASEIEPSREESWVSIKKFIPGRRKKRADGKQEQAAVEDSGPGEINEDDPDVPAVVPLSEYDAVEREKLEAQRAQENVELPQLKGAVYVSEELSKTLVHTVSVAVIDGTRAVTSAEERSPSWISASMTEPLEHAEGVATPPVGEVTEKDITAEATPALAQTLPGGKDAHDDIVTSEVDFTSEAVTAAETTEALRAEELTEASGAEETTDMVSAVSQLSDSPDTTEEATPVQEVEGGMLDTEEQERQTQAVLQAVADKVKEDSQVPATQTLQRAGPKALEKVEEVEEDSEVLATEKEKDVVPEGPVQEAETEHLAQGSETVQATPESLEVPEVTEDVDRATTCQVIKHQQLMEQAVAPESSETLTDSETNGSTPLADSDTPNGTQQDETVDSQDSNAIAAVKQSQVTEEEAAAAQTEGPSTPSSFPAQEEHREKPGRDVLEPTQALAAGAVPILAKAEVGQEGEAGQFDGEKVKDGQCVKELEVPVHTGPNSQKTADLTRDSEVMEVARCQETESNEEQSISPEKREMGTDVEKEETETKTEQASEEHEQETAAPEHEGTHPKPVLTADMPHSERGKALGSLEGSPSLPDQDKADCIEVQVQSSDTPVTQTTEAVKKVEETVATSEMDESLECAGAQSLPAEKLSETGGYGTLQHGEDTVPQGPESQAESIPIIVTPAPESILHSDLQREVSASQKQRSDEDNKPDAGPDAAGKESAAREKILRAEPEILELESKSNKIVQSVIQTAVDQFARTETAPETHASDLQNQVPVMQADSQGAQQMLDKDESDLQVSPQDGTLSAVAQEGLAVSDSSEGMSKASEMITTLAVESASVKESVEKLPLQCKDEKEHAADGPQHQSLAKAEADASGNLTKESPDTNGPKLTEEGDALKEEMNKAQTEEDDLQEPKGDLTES
UniProt Q9DBC7: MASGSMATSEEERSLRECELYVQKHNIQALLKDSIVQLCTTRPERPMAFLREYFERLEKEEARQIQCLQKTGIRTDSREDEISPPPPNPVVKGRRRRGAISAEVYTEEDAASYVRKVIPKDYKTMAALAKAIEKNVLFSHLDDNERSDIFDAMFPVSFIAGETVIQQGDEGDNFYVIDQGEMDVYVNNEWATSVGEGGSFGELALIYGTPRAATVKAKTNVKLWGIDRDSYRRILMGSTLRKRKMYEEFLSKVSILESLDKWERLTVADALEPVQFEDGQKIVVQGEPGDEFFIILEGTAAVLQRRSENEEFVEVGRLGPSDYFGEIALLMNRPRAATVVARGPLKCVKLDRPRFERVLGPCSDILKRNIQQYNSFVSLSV

Molecular target: Strep/FLAG SOX11 (mouse) (UniProt Q7M6Y2)
Assay: affinity purification with mass spectrometry; Strep/FLAG SOX11 transiently expressed in SILAC-labelled Neuro2a cells; anti-Flag M2 agarose beads with nuclear extract, Benzonase added to exclude DNA-mediated interactions; washed in TBS with 0.1% NP40; FLAG peptide elution; three forward and three reverse experiments

binding	Substance
binds	A-Kinase Anchoring Protein 8 (from UniProt Q9DBR0 1-687)
binds	A-Kinase Anchoring Protein 12 (from UniProt Q9WTQ5 1-1684)
binds	Protein Kinase A Type 1a Regulatory Subunit (from UniProt Q9DBC7 1-381)
